Results from the supplement of paper PMC10849652.
This is one part of the list.

Protein sequences, listed by entry. Tags and fused reporters are not part of them. Lines headed by an entry give the natural chain unless they say otherwise; changes in a name come on top.
UniProt P58004: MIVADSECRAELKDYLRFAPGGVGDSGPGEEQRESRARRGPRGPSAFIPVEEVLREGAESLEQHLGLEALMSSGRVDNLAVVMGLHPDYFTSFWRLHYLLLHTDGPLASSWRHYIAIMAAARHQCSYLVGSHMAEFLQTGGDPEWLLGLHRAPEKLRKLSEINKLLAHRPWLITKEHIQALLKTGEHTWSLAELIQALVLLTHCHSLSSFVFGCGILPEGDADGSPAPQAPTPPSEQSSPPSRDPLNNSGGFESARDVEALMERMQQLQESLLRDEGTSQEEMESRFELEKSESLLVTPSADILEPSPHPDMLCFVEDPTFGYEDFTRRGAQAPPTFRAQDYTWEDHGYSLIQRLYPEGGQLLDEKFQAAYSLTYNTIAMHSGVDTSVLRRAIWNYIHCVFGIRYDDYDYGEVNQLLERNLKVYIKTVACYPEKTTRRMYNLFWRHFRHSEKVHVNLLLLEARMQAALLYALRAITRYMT
UniProt O75368: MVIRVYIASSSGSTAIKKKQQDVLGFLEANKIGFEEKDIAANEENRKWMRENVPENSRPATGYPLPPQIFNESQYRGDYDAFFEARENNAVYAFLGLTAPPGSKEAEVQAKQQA
UniProt Q9Y3B4: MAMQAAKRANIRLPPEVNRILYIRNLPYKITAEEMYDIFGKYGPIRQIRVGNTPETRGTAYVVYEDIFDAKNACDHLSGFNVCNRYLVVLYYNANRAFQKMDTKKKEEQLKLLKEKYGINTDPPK
UniProt Q99963: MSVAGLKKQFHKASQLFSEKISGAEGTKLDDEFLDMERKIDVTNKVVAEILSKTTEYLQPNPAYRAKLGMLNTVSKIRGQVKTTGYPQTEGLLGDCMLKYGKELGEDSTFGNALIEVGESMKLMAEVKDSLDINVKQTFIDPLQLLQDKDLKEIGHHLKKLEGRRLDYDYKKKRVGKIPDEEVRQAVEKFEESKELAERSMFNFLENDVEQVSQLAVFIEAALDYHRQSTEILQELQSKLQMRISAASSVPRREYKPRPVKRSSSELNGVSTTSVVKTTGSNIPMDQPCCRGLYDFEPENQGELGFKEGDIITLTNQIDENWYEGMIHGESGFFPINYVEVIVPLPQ
UniProt P53985: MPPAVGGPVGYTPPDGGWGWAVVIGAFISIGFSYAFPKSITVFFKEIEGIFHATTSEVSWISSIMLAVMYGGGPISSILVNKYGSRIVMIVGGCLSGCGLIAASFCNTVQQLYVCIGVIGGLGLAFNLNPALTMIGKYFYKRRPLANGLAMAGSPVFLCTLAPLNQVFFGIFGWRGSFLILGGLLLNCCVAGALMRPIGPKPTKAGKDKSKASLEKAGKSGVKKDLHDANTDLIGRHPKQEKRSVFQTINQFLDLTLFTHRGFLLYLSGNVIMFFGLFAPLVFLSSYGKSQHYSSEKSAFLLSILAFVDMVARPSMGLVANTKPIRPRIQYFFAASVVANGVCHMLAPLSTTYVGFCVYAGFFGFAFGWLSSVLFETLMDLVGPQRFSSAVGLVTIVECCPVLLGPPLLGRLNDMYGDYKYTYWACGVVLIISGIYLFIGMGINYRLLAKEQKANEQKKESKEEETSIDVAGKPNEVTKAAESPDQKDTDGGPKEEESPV
UniProt Q9NRA2: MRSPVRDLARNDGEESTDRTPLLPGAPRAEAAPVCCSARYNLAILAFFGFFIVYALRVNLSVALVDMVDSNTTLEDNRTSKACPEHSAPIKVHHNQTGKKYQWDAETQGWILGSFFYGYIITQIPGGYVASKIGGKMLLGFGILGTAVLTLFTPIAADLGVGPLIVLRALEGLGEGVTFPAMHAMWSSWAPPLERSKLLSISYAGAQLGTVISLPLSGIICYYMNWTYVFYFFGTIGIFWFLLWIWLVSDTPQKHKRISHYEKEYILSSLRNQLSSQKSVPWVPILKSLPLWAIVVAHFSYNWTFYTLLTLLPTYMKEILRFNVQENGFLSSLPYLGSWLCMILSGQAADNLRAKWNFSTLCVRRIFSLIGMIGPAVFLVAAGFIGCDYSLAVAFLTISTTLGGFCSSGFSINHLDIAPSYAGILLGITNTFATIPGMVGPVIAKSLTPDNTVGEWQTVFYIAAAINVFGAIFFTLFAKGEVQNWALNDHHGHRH
UniProt Q13435: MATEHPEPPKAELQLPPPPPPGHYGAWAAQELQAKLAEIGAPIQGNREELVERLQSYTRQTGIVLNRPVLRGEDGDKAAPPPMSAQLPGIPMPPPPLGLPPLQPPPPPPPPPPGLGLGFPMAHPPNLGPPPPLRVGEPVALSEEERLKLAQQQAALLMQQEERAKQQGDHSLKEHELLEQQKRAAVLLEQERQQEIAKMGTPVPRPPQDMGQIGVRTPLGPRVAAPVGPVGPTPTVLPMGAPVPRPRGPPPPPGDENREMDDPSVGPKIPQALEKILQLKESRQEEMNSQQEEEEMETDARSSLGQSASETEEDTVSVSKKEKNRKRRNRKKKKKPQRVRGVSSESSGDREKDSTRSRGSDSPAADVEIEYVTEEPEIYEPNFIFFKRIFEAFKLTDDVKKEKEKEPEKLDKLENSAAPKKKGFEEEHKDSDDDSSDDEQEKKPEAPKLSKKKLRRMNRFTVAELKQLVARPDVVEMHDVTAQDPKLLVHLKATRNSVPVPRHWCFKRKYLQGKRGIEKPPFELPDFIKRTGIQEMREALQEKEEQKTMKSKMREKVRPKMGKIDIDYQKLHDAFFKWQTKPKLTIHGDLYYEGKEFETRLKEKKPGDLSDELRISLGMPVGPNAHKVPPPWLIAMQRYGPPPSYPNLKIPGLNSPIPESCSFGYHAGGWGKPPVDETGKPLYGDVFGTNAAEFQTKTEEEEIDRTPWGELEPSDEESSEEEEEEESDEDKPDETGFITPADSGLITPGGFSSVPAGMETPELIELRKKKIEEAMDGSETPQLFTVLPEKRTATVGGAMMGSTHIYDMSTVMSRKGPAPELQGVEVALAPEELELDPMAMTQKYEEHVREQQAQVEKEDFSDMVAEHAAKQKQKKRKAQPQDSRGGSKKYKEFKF
UniProt P30740: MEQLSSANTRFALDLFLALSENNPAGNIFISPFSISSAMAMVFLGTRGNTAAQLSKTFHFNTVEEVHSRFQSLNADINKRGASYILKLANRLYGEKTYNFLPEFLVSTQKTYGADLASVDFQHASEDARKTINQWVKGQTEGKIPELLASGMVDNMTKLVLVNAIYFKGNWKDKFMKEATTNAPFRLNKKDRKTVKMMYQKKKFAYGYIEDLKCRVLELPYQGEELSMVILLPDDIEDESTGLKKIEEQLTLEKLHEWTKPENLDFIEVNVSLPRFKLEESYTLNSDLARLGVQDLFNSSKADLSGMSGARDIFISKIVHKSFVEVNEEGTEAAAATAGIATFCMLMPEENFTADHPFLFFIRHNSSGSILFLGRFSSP
UniProt Q9H9B4: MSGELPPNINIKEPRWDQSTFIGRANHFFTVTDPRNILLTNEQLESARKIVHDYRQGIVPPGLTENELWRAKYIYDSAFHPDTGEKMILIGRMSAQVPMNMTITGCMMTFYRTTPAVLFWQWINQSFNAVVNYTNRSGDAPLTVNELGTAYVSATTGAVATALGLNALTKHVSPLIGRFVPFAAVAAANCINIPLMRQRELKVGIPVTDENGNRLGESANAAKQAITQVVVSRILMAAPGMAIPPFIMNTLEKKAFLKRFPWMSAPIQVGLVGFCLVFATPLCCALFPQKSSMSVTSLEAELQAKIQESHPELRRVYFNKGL
UniProt Q9UJC5: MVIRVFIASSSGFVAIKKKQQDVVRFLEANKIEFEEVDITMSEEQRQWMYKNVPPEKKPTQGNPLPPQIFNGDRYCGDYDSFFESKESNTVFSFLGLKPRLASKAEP
UniProt Q8IXJ6: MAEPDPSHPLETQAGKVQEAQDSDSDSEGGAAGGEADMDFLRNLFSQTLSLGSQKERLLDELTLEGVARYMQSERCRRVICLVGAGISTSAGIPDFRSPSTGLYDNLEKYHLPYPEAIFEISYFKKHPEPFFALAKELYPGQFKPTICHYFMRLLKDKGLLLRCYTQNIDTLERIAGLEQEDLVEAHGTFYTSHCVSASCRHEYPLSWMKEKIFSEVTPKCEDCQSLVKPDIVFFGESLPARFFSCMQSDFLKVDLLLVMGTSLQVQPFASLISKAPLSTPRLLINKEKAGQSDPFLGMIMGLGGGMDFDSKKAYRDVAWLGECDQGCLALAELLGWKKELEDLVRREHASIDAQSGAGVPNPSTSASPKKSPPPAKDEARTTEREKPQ
UniProt P12757: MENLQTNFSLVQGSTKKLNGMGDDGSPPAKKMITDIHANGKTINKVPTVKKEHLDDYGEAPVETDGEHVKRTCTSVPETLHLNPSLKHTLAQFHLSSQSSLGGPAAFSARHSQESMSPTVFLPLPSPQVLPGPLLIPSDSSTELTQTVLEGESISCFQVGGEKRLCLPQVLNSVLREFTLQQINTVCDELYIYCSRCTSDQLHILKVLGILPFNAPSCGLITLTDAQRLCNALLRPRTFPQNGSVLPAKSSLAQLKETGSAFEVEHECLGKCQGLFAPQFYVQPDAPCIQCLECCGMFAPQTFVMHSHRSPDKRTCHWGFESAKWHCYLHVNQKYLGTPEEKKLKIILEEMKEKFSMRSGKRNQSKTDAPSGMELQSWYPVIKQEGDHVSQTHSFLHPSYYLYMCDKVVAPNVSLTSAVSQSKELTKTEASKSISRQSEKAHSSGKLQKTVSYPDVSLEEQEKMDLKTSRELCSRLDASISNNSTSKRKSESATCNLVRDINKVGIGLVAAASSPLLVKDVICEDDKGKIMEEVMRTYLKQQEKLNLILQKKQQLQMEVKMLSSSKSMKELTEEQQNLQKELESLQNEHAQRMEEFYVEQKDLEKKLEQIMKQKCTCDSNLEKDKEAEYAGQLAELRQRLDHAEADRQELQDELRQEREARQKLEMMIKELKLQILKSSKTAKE
UniProt Q8WVK7: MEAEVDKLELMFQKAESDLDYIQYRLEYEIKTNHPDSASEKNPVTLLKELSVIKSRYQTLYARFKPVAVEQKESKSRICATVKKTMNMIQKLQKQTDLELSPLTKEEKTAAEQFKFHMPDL
UniProt Q9H0F6: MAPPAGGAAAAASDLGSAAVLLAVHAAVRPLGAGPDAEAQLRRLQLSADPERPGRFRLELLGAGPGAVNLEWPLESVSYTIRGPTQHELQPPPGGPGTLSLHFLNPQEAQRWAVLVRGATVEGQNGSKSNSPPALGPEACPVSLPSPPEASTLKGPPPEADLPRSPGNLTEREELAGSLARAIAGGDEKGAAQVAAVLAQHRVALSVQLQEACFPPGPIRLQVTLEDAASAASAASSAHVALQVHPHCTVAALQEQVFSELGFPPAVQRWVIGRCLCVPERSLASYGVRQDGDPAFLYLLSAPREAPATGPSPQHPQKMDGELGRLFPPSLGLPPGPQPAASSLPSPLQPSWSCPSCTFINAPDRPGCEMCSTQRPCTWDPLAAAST
UniProt Q8NEM2: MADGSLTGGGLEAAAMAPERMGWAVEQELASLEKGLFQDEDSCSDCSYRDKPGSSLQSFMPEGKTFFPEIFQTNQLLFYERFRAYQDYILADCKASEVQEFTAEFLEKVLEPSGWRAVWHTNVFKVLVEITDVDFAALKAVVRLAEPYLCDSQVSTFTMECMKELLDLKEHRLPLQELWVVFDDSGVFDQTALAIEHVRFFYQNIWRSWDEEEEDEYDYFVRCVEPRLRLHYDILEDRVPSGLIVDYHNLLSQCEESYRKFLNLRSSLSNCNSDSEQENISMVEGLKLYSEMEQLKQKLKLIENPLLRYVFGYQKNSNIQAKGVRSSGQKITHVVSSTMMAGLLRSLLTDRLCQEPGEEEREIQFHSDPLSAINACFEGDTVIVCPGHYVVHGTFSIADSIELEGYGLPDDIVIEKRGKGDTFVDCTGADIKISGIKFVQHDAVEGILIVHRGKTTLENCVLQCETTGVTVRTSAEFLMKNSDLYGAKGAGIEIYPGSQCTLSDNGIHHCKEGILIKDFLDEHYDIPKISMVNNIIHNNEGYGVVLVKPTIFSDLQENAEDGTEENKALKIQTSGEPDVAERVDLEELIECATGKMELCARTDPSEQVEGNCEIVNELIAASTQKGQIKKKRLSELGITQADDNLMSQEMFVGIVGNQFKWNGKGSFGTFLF
UniProt Q9NP31, whole entry, looked up: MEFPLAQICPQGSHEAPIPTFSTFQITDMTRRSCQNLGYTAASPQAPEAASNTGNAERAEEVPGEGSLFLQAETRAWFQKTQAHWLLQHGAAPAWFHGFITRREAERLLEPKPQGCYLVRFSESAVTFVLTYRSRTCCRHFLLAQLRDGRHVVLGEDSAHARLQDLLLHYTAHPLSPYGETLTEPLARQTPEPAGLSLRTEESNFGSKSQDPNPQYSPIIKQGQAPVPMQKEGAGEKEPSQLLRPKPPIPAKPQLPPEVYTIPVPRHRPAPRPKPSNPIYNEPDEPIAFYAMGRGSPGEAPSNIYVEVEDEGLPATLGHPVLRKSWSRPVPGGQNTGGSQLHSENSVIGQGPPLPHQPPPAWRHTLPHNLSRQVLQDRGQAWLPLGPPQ
UniProt P84101: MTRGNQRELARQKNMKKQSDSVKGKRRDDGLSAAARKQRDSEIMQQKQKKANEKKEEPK

Columns and labels:
Experiment in all cases: log2 fold change, soluble protein after heating vs DMSO (PISA); higher = thermal stabilisation; K562 lysate, 10 uM; active = over 0.2 and 3.5 SD of the protein, either way, in both replicates (recomputed)
[1] = compound: NCC(=O)Nc1ccc(-n2nc(C(F)(F)F)cc2-c2ccc3c(ccc4ccccc43)c2)cc1
How it was run: (§1)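 Values give the log-two fold change in thermal stability against solvent controls, from duplicates. Crude K562 extract at 1 mg/mL protein, made by dounce homogenisation in PBS pH 7.4 with 1 mM MgCl2, was treated with 10 μM compound for 30 min. After 3 min heating across 48°C-58°C, aliquots were pooled, adjusted to 0.5% NP-40 at 4°C and centrifuged at 21,000xg for 90 min. The supernatant was measured by TMTpro 16plex LC-MS/MS with channel sums equalised.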

vorinostat = compound: O=C(CCCCCCC(=O)Nc1ccccc1)NO [vorinostat]
How it was run: as §1

silmitasertib = compound: O=C(O)c1ccc2c(c1)nc(Nc1cccc(Cl)c1)c1ccncc12 [silmitasertib]
How it was run: as §1

[2] = compound: O=C1NC(=O)C(c2cnc3ccccn23)=C1c1cn2c3c(cc(F)cc13)CN(C(=O)N1CCCCC1)CC2
How it was run: as §1

entospletinib = compound: c1cn2cc(-c3ccc4cn[nH]c4c3)nc(Nc3ccc(N4CCOCC4)cc3)c2n1 [entospletinib]
How it was run: as §1

Target | log2 fold change [1] | log2 fold change (vorinostat) | log2 fold change (silmitasertib) | log2 fold change [2] | log2 fold change (entospletinib)
SESN2 (UniProt P58004) | inactive: 0.006 | active: -0.367 | inactive: 0.066 | inactive: 0.022 | inactive: 0.073
SETX isoform 4 (UniProt Q7Z333) | inactive: -0.007 | inactive: -0.202 | inactive: 0.036 | inactive: -0.005 | inactive: -0.045
SH3BGRL (UniProt O75368) | inactive: -0.006 | inactive: 0.172 | inactive: -0.031 | inactive: 0.035 | inactive: -0.027
SF3B6 (UniProt Q9Y3B4) | inactive: 0.018 | active: -0.273 | inactive: 0.026 | inactive: 0.007 | inactive: -0.015
SH3GL3 isoform 3 (UniProt Q99963) | inactive: 0.108 | inactive: -0.091 | inactive: 0.028 | inactive: 0.01 | inactive: 0.01
SLC16A1 (UniProt P53985) | inactive: 0.004 | active: -0.62 | inactive: -0.012 | inactive: -0.01 | inactive: 0.012
SHFL (UniProt Q9NUL5) | inactive: 0.136 | inactive: 0.119 | inactive: -0.077 | inactive: -0.019 | inactive: -0.026
SLC17A5 (UniProt Q9NRA2) | inactive: 0.004 | inactive: 0.11 | inactive: -0.124 |  | inactive: 0.011
SLC19A1 (UniProt P41440) | inactive: 0.003 | inactive: 0.01 | inactive: -0.024 | inactive: -0.054 | inactive: -0.002
SF3B2 (UniProt Q13435) | inactive: 0.003 | inactive: 0.028 | inactive: -0.042 | inactive: 0.011 | inactive: -0.036
SIN3A (UniProt Q96ST3) | inactive: -0.007 | inactive: -0.076 | inactive: 0.033 | inactive: -0.019 | inactive: -0.003
SERPINB1 (UniProt P30740) | inactive: -0.005 | inactive: 0.115 | inactive: -0.013 | inactive: -0.006 | inactive: -0.002
SFXN1 (UniProt Q9H9B4) | inactive: -0.034 | inactive: 0.128 | inactive: -0.001 | inactive: 0.006 | inactive: 0
SKP2 (UniProt Q13309) | inactive: -0.07 | inactive: -0.203 | inactive: 0.012 | inactive: 0.009 | inactive: -0.103
SH3BGRL2 (UniProt Q9UJC5) | inactive: -0.003 | inactive: 0.153 | inactive: -0.011 | inactive: 0.099 | inactive: 0.04
SIRT2 (UniProt Q8IXJ6) | inactive: -0.052 | inactive: -0.026 | inactive: 0.051 | inactive: 0.023 | inactive: -0.047
SF1 isoform 6 (UniProt Q15637) | inactive: -0.032 | inactive: 0.126 | inactive: -0.109 |  | inactive: 0.046
SKIL (UniProt P12757) | inactive: 0.069 | inactive: -0.319 | inactive: 0.051 |  | inactive: 0.02
SKA2 (UniProt Q8WVK7) | inactive: 0.086 | active: -0.364 | inactive: -0.035 | inactive: 0.067 | inactive: -0.028
SHARPIN (UniProt Q9H0F6) | inactive: -0.1 | inactive: -0.275 | inactive: -0.164 | inactive: -0.063 | inactive: -0.041
SHCBP1 (UniProt Q8NEM2) | inactive: 0.02 | active: -0.37 | inactive: 0.04 | inactive: -0.009 | inactive: -0.013
SH2D2A isoform 2 (UniProt Q9NP31) | inactive: 0.063 | inactive: 0.043 | inactive: 0.06 | inactive: 0.101 | inactive: -0.195
SF3B4 (UniProt Q15427) | inactive: -0.049 | inactive: 0.063 | inactive: -0.075 | inactive: 0.042 | inactive: -0.057
SERF2 (UniProt P84101) | inactive: 0.066 | inactive: 0.151 | inactive: 0.059 | inactive: 0.016 | inactive: 0.027
SETMAR (UniProt Q53H47) | inactive: -0.003 | inactive: -0.022 | inactive: -0.03 | inactive: 0.042 | inactive: 0.028

Part of the list above, in CSV form.
Target,log2 fold change [1],log2 fold change (vorinostat),log2 fold change (silmitasertib),log2 fold change [2],log2 fold change (entospletinib)
SF1 isoform 6 (UniProt Q15637),inactive: -0.032,inactive: 0.126,inactive: -0.109,,inactive: 0.046
SKIL (UniProt P12757),inactive: 0.069,inactive: -0.319,inactive: 0.051,,inactive: 0.02
